Source: US20210205441A1
These are yes or no findings as the source states them, for the method shown. Some entries that bind do so weakly or less than the wild type.

Sequences of proteins named here, by UniProt entry; tags and fusion partners are left off. A change or cut given only in a name is not applied to a line headed by its entry. Residues count along the entry.
UniProt Q92956, residues 39-202: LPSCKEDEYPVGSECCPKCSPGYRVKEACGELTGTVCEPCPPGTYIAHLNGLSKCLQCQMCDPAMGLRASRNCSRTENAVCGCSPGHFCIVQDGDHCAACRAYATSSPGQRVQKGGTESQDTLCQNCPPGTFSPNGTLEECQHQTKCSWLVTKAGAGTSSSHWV

Assays:
Assay in all cases: ELISA, HVEM on gD variants (FIG. 14)
[1] = biological target: modified gD gD1-275v5-55 (HSV-2 333 strain) (UniProt Q69467)
[2] = biological target: modified gD gD1-315v3-55 (HSV-2 333 strain) (UniProt Q69467)
[3] = biological target: modified gD gD1-315v5-55 (HSV-2 333 strain) (UniProt Q69467)
[4] = biological target: modified gD gD1-315v5-55V (HSV-2 333 strain) (UniProt Q69467)

Measured: binding

Recombinant Human HVEM/TNFRSF14 Fc Chimera Protein (R&D SYSTEMS, Inc.) (from UniProt Q92956 39-202) (Fc fusion)
binds: all assays above
